# Experimental data published in PubChem BioAssay AID1487 (National Center for Advancing Translational Sciences (NCATS), 2009).
# Some of the results follow. Shown are side measurements of this screen, not its main read-out; they come without a call. Compounds called inactive in the main read-out are mostly missing here. The note in brackets gives the kind of curve behind each potency; many fits are weak.
# Assay: qHTS Assay for Modulators of Lamin A Splicing
# Settings: HeLa LMNA splicing GFP/RFP minigene ratio, 48 h
# Summary of the method: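 Read-out is the ratio of GFP to DsRed2 object intensity, acquired by 488 nm laser-scanning cytometry on HeLa lamin A-EGFP minigene reporter cells. Compound incubation 48 hrs at 37 °C in Opti-MEM with 2% FBS; DMSO 0.5% final.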
# [1] = measured here: RFP viability control channel
# [2] = measured here: GFP splicing reporter channel
Compound,AC50 [1],AC50 [2]
CC(=O)c1ccc(OC2OCCOC2Oc2ccc(C(C)=O)cc2)cc1 (stereo not given),"15.8 µM [rising, single point]",
CC(C)c1ccc(/C=N/Nc2cc(N3CCOCC3)nc(N3CCOCC3)n2)cc1,"10 µM [rising, partial curve]","5.01 µM [rising, partial curve]"
O=C(Nc1nc(-c2ccc3c(c2)OCO3)cs1)c1ccncc1,"3.55 µM [rising, full curve]","8.91 µM [rising, partial curve]"
COc1ccc(-c2csc(-c3cccnc3)n2)cc1C,"0.0891 µM [falling, full curve]",
CC1=NNC(=O)/C1=C\c1cn(-c2ccccc2)nc1-c1ccc(Cl)cc1,"3.16 µM [falling, full curve]","3.16 µM [falling, full curve]"
O=[N+]([O-])c1cc(Oc2cccnc2)cc([N+](=O)[O-])c1,"35.5 µM [rising, single point]",
Cc1ccc(/C=N/NC(=O)CN(Cc2ccccc2)S(=O)(=O)c2ccc3c(c2)OCCO3)cc1,"35.5 µM [rising, single point]",
O=c1oc2ccccc2c(N2CCCCC2)c1CN1CCCCC1,"35.5 µM [rising, single point]",
COc1cccc(CNC(=O)c2sc3nc[nH]c(=O)c3c2C)c1,,"0.02 µM [falling, full curve, poor fit]"
Cc1cc(C)cc(NC(=O)CSc2nc(N)c(NC(=O)c3cccs3)c(=O)[nH]2)c1,"10 µM [falling, single point]","7.94 µM [falling, partial curve]"
N#C/C(=C\c1ccco1)Sc1nc2ccccc2s1,,"35.5 µM [falling, single point]"
N=c1ccn(Cc2ccccc2Cl)cc1,"14.1 µM [rising, single point]",
CCN(CC)c1ccc(/C=C(\C#N)c2ccccn2)cc1,"31.6 µM [rising, single point]","15.8 µM [rising, single point]"
Cc1cc(N2CCOCC2)n2nc(C)c(-c3ccccc3)c2n1,"11.2 µM [rising, single point]","14.1 µM [rising, single point]"
Cc1ccccc1NC(=O)c1cc(C(=O)c2cc(Cl)ccc2O)cn(-c2ccccc2C)c1=O,"17.8 µM [rising, partial curve]",
O=C1CCNc2cc3ccccc3cc21,"35.5 µM [falling, single point]","25.1 µM [falling, single point]"
Cc1ccc(N2CCN(C(=O)c3c(C)oc4ncn(C)c(=O)c34)CC2)c(C)c1,,"0.00631 µM [rising, full curve, poor fit]"
COCCN(CCOC)c1ncc(Cl)c(C(=O)c2c(C)cc3ccccn23)n1,"15.8 µM [rising, single point]","7.94 µM [rising, partial curve, poor fit]"

# Reformatted tab-delimited: entries from further up
Compound	AC50 [1]	AC50 [2]
CC(C)c1ccc(/C=N/Nc2cc(N3CCOCC3)nc(N3CCOCC3)n2)cc1	10 µM [rising, partial curve]	5.01 µM [rising, partial curve]
O=C(Nc1nc(-c2ccc3c(c2)OCO3)cs1)c1ccncc1	3.55 µM [rising, full curve]	8.91 µM [rising, partial curve]

# Remaining list, next part:

Compound,AC50 [1],AC50 [2]
CCN(CC)c1ccc(NC(=O)COCc2cc(-c3ccc4c(c3)OCO4)on2)c(C)c1,,"5.01 µM [falling, single point]"
CCOC(=O)CCc1nn(C)c(=O)c2ccccc12,"35.5 µM [rising, single point]","35.5 µM [rising, single point]"
CC(N=Cc1cccc(O)c1O)c1ccccc1 (stereo not given),,"10 µM [rising, partial curve]"
O=C(/C=C/c1ccc2c(c1)OCO2)Nc1nc(-c2ccc(F)cc2F)cs1,"7.08 µM [rising, partial curve]","3.16 µM [rising, full curve]"
CC(=O)Oc1ccc2ccccc2c1C(NC(=O)Cc1ccccc1)c1ccccc1Cl (stereo not given),"35.5 µM [falling, partial curve, poor fit]","35.5 µM [falling, partial curve, poor fit]"
CN(/N=C/c1ccc(O)cc1O)c1nc(-c2ccccc2)cc(-c2ccccc2)n1,"12.6 µM [falling, single point]","22.4 µM [falling, partial curve]"
COc1ccccc1-c1nc(CNC(=O)NC2CCCCC2)c(C)o1,"0.126 µM [rising, full curve, poor fit]",
CC(C)C[C@H](NC(=O)[C@@H](O)[C@H](N)Cc1ccccc1)C(=O)O,,"1 µM [rising, full curve, poor fit]"
CC(Oc1ccc(-c2ccccc2)c(F)c1)c1ccn(S(=O)(=O)c2ccc(F)cc2)n1 (stereo not given),"22.4 µM [rising, single point]",
Cc1cc(C)c(C(=O)/C=C/C=C/c2ccccc2)c(=O)[nH]1,"11.2 µM [rising, partial curve, poor fit]",
Nc1nn(S(=O)(=O)c2cccc3nsnc23)cc1-c1ccc(Br)cc1,"17.8 µM [rising, single point]","35.5 µM [rising, single point]"
CC(=O)c1c(C(C)=O)c(C)n(Cc2ccccc2)c1C,"35.5 µM [rising, single point]",
CS(=O)(=O)c1ccc2nc(NC(=O)c3cccs3)sc2c1,"10 µM [rising, partial curve, poor fit]",
COCCn1c(C)cc(O)c(C(c2ccccc2)N2CCN(c3ccccc3F)CC2)c1=O (stereo not given),"1.58 µM [rising, partial curve]",
CC(=O)NCCn1c(SCc2cc(=O)n3cc(Cl)ccc3n2)nc2ccccc2c1=O,,"3.55 µM [falling, single point]"
COc1ccc(N2CCN(C(=O)CCNS(=O)(=O)c3ccc(Br)s3)CC2)cc1,"35.5 µM [rising, single point]",
O=C(CCCSc1nc2ccccc2c(=O)[nH]1)c1ccc(F)cc1,"0.224 µM [rising, full curve, poor fit]",
CCN(CC)S(=O)(=O)c1ccc(C)c(NC(=O)/C=C/c2cccs2)c1,"31.6 µM [rising, single point]","15.8 µM [rising, single point]"
